Experimental data from the supplement of paper PMC4604168 (melanoma cell lines).
The other results are listed elsewhere or left out. Repeats are few or missing, and single values can be far off.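 Imaging used 1,536-well plates; nuclei positive for cleaved PARP by antibody were divided by total DNA-stained nuclei to yield the apoptosis fraction. Doses for screening kept most cells viable, and cell lines differ markedly in resting and induced cleaved-PARP levels.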

Key:
Experiment in all cases: cleaved PARP positive nuclei fraction relative to DMSO control; melanoma cells; higher = more apoptosis
Settings in all cases: library dose: low library concentration; 72 h
MZ2-MEL = test system: MZ2-MEL
MeWo = test system: MeWo
RPMI7951 = test system: RPMI7951
RVH-421 = test system: RVH-421
SkMel28 = test system: SkMel28
SkMel30 = test system: SkMel30
SkMel5 = test system: SkMel5
UACC257 = test system: UACC257
UACC62 = test system: UACC62

Row | SMILES | cleaved PARP positive nuclei fraction (MZ2-MEL) | cleaved PARP positive nuclei fraction (MeWo) | cleaved PARP positive nuclei fraction (RPMI7951) | cleaved PARP positive nuclei fraction (RVH-421) | cleaved PARP positive nuclei fraction (SkMel28) | cleaved PARP positive nuclei fraction (SkMel30) | cleaved PARP positive nuclei fraction (SkMel5) | cleaved PARP positive nuclei fraction (UACC257) | cleaved PARP positive nuclei fraction (UACC62)
1 | CN(C)S(=O)(=O)c1ccc2c(c1)/C(=C/c1cc3c([nH]1)CCCC3)C(=O)N2 + O=C(Oc1ccc([N+](=O)[O-])cc1)N1CCC(C(O)(c2ccc3c(c2)OCO3)c2ccc3c(c2)OCO3)CC1 [JZL184] (first compound 0.4 µM, partner dose 1 µM) | 88% | 91% | 173% | 101% | 144% | 33.6% | 58.2% | 103% | 248%
2 | COC(=O)c1sccc1S(=O)(=O)Nc1ccc(Nc2ccccc2)cc1OC + C/C(O)=C(\C#N)C(=O)Nc1cc(Br)ccc1Br [LFM-A13] (first compound 1 µM, partner dose 2 µM) | 49.4% | 76.3% | 73.6% | 59.4% | 135% | 210% | 131% | 103% | 70.7%
3 | C/C(O)=C(\C#N)C(=O)Nc1cc(Br)ccc1Br + O=c1cc(-c2cccc3c2Sc2ccccc2S3)oc(N2CCOCC2)c1 [KU55933] (first compound 2 µM, partner dose 1 µM) | 146% | 62.1% | 42.7% | 106% | 77.6% | 41.4% | 52.5% | 224% | 76.8%
4 | Cc1cc(SCc2sc(-c3ccc(C(F)(F)F)c(F)c3)nc2C)ccc1OCC(=O)O + O=C(O)C(=O)Nc1sc2c(c1C(=O)O)CCNC2 [TCS401] (first compound 2 µM, partner dose 1.66667 µM) | 82.2% | 230% | 94.9% | 58.4% | 83.9% | 101% | 61.5% | 32.2% | 159%
5 | Cc1cc(SCc2sc(-c3ccc(C(F)(F)F)c(F)c3)nc2C)ccc1OCC(=O)O + COc1cc(N2CCC(N3CCN(C)CC3)CC2)ccc1Nc1ncc(Cl)c(Nc2ccccc2S(=O)(=O)C(C)C)n1 [NVP-TAE684] (first compound 2 µM, partner dose 0.08 µM) | 118% | 104% | 231% | 20.8% | 53.7% | 73.7% | 57.9% | 117% | 125%
6 | COc1ccc(COc2ccc(Cc3cnc(N)nc3N)cc2OC)cc1 + C/C(O)=C(\C#N)C(=O)Nc1cc(Br)ccc1Br [LFM-A13] (first compound 1 µM, partner dose 2 µM) | 181% | 103% | 41.2% | 39.9% | 96.5% | 57.6% | 153% | 97.1% | 44.8%
7 | Cc1nc(Nc2ncc(C(=O)Nc3c(C)cccc3Cl)s2)cc(N2CCN(CCO)CC2)n1 [dasatanib] + Cc1cc(SCc2sc(-c3ccc(C(F)(F)F)c(F)c3)nc2C)ccc1OCC(=O)O [GW0742] (first compound 0.004 µM, partner dose 2 µM) | 197% | 101% | 146% | 57.8% | 161% | 127% | 270% | 316% | 123%
8 | C[C@]12O[C@H](C[C@]1(O)CO)n1c3ccccc3c3c4c(c5c6ccccc6n2c5c31)CNC4=O [Lestaurtinib] + O=C(O)c1ccc(-c2c[nH]c3ncc(-c4ccccc4)cc23)cc1C1CCCC1 [GSK650394] (first compound 0.004 µM, partner dose 0.16 µM) | 112% | 109% | 57.2% | 129% | 184% | 70.6% | 44.2% | 63.8% | 120%
9 | C[C@]12O[C@H](C[C@]1(O)CO)n1c3ccccc3c3c4c(c5c6ccccc6n2c5c31)CNC4=O [Lestaurtinib] + Cn1cc(/C=C2\C(=O)Nc3cccnc32)c2ccccc21 [GW441756] (first compound 0.004 µM, partner dose 0.4 µM) | 48.7% | 71.6% | 207% | 105% | 134% | 143% | 540% | 356% | 91.3%
10 | C[C@]12O[C@H](C[C@]1(O)CO)n1c3ccccc3c3c4c(c5c6ccccc6n2c5c31)CNC4=O [Lestaurtinib] + CC(=O)c1c(C)c2cnc(Nc3ccc(N4CCNCC4)cn3)nc2n(C2CCCC2)c1=O [palbociclib] (first compound 0.004 µM, partner dose 0.04 µM) | 98.6% | 29.2% | 34.8% | 232% | 104% | 78.5% |  |  | 124%
11 | C[C@]12O[C@H](C[C@]1(O)CO)n1c3ccccc3c3c4c(c5c6ccccc6n2c5c31)CNC4=O [Lestaurtinib] + CCCCCCCCCCCC1=C(O)C(=O)C=C(O)C1=O [Embelin] (first compound 0.004 µM, partner dose 1.2 µM) | 134% | 46.3% | 85.3% | 217% | 142% | 29.6% | 150% | 40.3% | 66.5%
12 | C[C@]12O[C@H](C[C@]1(O)CO)n1c3ccccc3c3c4c(c5c6ccccc6n2c5c31)CNC4=O [Lestaurtinib] + Nc1ccn([C@@H]2O[C@H](CO)[C@@H](O)C2(F)F)c(=O)n1 [gemcitabine] (first compound 0.004 µM, partner dose 0.0004 µM) | 122% | 180% | 59.5% | 46.4% | 204% | 96% |  |  | 105%
13 | C/C(O)=C(\C#N)C(=O)Nc1cc(Br)ccc1Br + Oc1nc(-c2ccc(C(F)(F)F)cc2)nc2c1CSCC2 [XAV939] (first compound 2 µM, partner dose 2 µM) | 100% | 54.1% | 92.5% | 60.6% | 81.8% | 38% | 37.6% | 124% | 41.9%
14 | O=C(/C=C/c1cccnc1)NCCCCC1CCN(C(=O)c2ccccc2)CC1 + C[C@]12O[C@H](C[C@]1(O)CO)n1c3ccccc3c3c4c(c5c6ccccc6n2c5c31)CNC4=O [Lestaurtinib] (first compound 0.01 µM, partner dose 0.004 µM) | 211% | 140% | 134% | 222% | 34.7% | 59.6% |  |  | 97%
15 | C[C@]12O[C@H](C[C@]1(O)CO)n1c3ccccc3c3c4c(c5c6ccccc6n2c5c31)CNC4=O [Lestaurtinib] + C=CCNC1=C2C[C@@H](C)C[C@H](OC)[C@H](O)[C@@H](C)/C=C(\C)[C@H](OC(N)=O)[C@@H](OC)/C=C\C=C(/C)C(=O)NC(=CC1=O)C2=O [Tanespimycin] (first compound 0.004 µM, partner dose 0.002 µM) | 117% | 83.1% | 94.3% | 138% | 61.7% | 24.5% |  |  | 197%
16 | Cn1c(Nc2ccc(C(F)(F)F)cc2)nc2cc(Oc3ccnc(-c4ncc(C(F)(F)F)[nH]4)c3)ccc21 + C/C(O)=C(\C#N)C(=O)Nc1cc(Br)ccc1Br [LFM-A13] (first compound 0.08 µM, partner dose 2 µM) | 82.1% | 147% | 138% | 179% | 317% | 113% | 74.8% | 3050% | 256%
17 | C[C@]12O[C@H](C[C@]1(O)CO)n1c3ccccc3c3c4c(c5c6ccccc6n2c5c31)CNC4=O [Lestaurtinib] + CN(c1ncccc1CNc1nc(Nc2ccc3c(c2)CC(=O)N3)ncc1C(F)(F)F)S(C)(=O)=O [PF562271] (first compound 0.004 µM, partner dose 0.08 µM) | 55.3% | 69.6% | 61.2% | 78.8% | 85.1% | 34% |  |  | 143%
18 | COc1cc(N2CCC(N3CCN(C)CC3)CC2)ccc1Nc1ncc(Cl)c(Nc2ccccc2S(=O)(=O)C(C)C)n1 + O=C(Oc1ccc([N+](=O)[O-])cc1)N1CCC(C(O)(c2ccc3c(c2)OCO3)c2ccc3c(c2)OCO3)CC1 [JZL184] (first compound 0.08 µM, partner dose 1 µM) | 79.4% | 61.7% | 45.8% | 103% | 66.6% | 56.7% | 116% | 35.8% | 12.5%
19 | Cc1cc(SCc2sc(-c3ccc(C(F)(F)F)c(F)c3)nc2C)ccc1OCC(=O)O + Oc1nc(-c2ccc(C(F)(F)F)cc2)nc2c1CSCC2 [XAV939] (first compound 2 µM, partner dose 2 µM) | 147% | 57.5% | 41.2% | 50% | 216% | 123% | 207% | 186% | 106%
20 | C[C@]12O[C@H](C[C@]1(O)CO)n1c3ccccc3c3c4c(c5c6ccccc6n2c5c31)CNC4=O [Lestaurtinib] + Nc1ncn([C@H]2C[C@H](O)[C@@H](CO)O2)c(=O)n1 [decitabine] (first compound 0.004 µM, partner dose 0.1 µM) | 143% | 90.2% | 57% | 53.7% | 158% | 94.8% |  |  | 313%
21 | Cc1cc(Nc2cc(N3CCN(C)CC3)nc(Sc3ccc(NC(=O)C4CC4)cc3)n2)n[nH]1 [Tozasertib] + C[C@]12O[C@H](C[C@]1(O)CO)n1c3ccccc3c3c4c(c5c6ccccc6n2c5c31)CNC4=O [Lestaurtinib] (first compound 0.006 µM, partner dose 0.004 µM) | 141% | 145% | 71.6% | 183% | 98.7% | 144% |  |  | 118%

Part of the list above, limited to cleaved PARP positive nuclei fraction (SkMel5).
Row	SMILES	cleaved PARP positive nuclei fraction (SkMel5)
5	Cc1cc(SCc2sc(-c3ccc(C(F)(F)F)c(F)c3)nc2C)ccc1OCC(=O)O + COc1cc(N2CCC(N3CCN(C)CC3)CC2)ccc1Nc1ncc(Cl)c(Nc2ccccc2S(=O)(=O)C(C)C)n1 [NVP-TAE684] (first compound 2 µM, partner dose 0.08 µM)	57.9%
6	COc1ccc(COc2ccc(Cc3cnc(N)nc3N)cc2OC)cc1 + C/C(O)=C(\C#N)C(=O)Nc1cc(Br)ccc1Br [LFM-A13] (first compound 1 µM, partner dose 2 µM)	153%
